Test results reported in patent EP1988168A1 (Max-Planck-Gesellschaft zur Förderung der Wissenschaften …, dated 2008).
Results are given in words; binding and its absence hold for the method and conditions named. For some of these results: In cells and extracts the contact can be indirect. Some entries that bind do so weakly or less than the wild type. Where a sequence is shown, tags or fusion partners need not be part of it. Blank lines part the entries; values can stand above or below the binder they belong to.

Sequences of proteins named here, by UniProt entry; tags and fusion partners are left off. A change or cut given only in a name is not applied to a line headed by its entry.
UniProt Q44176: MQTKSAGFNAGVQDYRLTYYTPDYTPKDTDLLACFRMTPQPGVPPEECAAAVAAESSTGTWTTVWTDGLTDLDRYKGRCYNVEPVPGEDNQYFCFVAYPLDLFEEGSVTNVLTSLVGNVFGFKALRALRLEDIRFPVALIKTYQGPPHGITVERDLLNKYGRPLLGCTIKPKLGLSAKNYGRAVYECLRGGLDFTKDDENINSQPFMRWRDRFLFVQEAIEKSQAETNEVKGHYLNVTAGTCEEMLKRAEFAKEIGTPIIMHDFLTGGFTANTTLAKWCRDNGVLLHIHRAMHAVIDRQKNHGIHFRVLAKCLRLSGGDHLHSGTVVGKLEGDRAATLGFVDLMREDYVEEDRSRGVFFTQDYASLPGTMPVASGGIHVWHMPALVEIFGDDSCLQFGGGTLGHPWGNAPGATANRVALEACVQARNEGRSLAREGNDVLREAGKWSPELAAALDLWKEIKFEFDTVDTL

Legend:
[1] = target: Syn6301-RbcL8 (Synechococcus sp. PCC6301) (UniProt P00880); assay: incubation of purified proteins, gel filtration and immunoblot
Syn7002-RbcL [2] = target: T1, Syn7002-RbcL (Synechococcus sp. PCC7002, UniProt Q44176 1-470); assay: Native-PAGE and co-immunoprecipitation with anti-FLAG beads
T1 construct: Stood in the assays as monomers, dimers, assembly intermediates or RbcL8 core complex, depending on the experiment; also called wildtype RbcL; RbcL8

[3] = target: Syn7002-RbcL(F462A) (Synechococcus sp. PCC7002) (UniProt Q44176); assay: co-immunoprecipitation with anti-FLAG beads
[4] = target: Syn7002-RbcL(F464A) (Synechococcus sp. PCC7002) (UniProt Q44176); assay: co-immunoprecipitation with anti-FLAG beads
Syn7002-RbcL [5] = target: T1, Syn7002-RbcL; assay: pulse-chase in vitro translation, immunoprecipitation with anti-FLAG antibody
Syn7002-RbcL [6] = target: T1, Syn7002-RbcL; assay: co-immunoprecipitation with anti-FLAG antibody from E. coli extract
[7] = target: Syn6301-RbcL8 (Synechococcus sp. PCC6301) (UniProt P00880); assay: co-purification on Ni-NTA-agarose, MonoQ and gel filtration; Native-PAGE

- binding [1]: binds
- binding (Syn7002-RbcL [2]): binds
- binding [3]: binds
- binding [4]: binds
- binding (Syn7002-RbcL [5]): binds
B1: AnaCA-RbcXFLAG (other, Anabaena sp. CA)
chain: MDYKDDDDKAGMNLKQIAKDTAKTLQSYLTYQALRTVLAQLGETNPPLALWLHNFSAGKVQDGEKYIEELFLEKPDLALRIMTVREHIAEEIAEFLPEMVVTGIQQANMEKRRQHLERMTQVSLSHPSPESEQQQFSDPDWDNLAS
notes: also called FLAG-tagged AnaCA-RbcX

- binding (Syn7002-RbcL [6]): binds
B2: Syn7002-RbcX(Y17A)FLAG (protein, Synechococcus sp. PCC7002)
chain: MDYKDDDDKAGMEFKKVAKETAITLQSALTYQAVRLISQQLSETNPGQAIWLGEFSKRHPIQESDLYLEAMMLENKELVLRILTVRENLAEGVLEFLPEMVLSQIKQSNGNHRRSLLERLTQVDSSSTDQTEPNPGESDTSEDSE

- binding [7]: binds
B3: AnaCA-RbcX (other, Anabaena sp. CA, UniProt Q44212 1-135, looked up)
chain: MNLKQIAKDTAKTLQSYLTYQALRTVLAQLGETNPPLALWLHNFSAGKVQDGEKYIEELFLEKPDLALRIMTVREHIAEEIAEFLPEMVVTGIQQANMEKRRQHLERMTQVSLSHPSPESEQQQFSDPDWDNLAS
notes: also called RbcX from Anabaena sp; CA
